From PubChem BioAssay AID2551 (National Center for Advancing Translational Sciences (NCATS), 2010)
The whole screen tested about 310,000 compounds, of which about 17,000 (5.5%) were called active. This list was built around the results that the source calls inconclusive (neither active nor inactive); the mix of calls is not that of the screen. Calls come from the whole dose curve; as a rule, active = well fitted inhibition curve with a large enough effect; inconclusive = small, poorly fitted or top-dose-only effect, or effect the other way; inactive = no such curve, though single readings can be large or run the other way. Potencies beside an inconclusive call are fits to weak or partial responses and may not hold up.

Sequences of proteins named here, by UniProt entry; tags and fusion partners are left off. A change or cut given only in a name is not applied to a line headed by its entry.
UniProt P51450: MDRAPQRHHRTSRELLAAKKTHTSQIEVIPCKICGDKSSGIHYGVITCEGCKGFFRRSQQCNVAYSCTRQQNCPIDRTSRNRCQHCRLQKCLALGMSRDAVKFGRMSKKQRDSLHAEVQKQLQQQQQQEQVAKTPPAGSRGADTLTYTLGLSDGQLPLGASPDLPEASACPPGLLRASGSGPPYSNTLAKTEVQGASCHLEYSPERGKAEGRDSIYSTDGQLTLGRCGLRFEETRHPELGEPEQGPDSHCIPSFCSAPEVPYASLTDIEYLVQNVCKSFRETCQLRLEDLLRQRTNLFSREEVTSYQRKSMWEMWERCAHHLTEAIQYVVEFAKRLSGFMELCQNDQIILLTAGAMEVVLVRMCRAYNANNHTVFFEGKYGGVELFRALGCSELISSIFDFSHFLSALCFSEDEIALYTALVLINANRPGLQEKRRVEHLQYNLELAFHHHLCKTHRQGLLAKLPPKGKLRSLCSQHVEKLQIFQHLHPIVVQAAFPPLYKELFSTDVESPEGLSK

What follows are molecules tested against Nuclear receptor ROR-gamma (Mus musculus) (UniProt P51450) (assay: qHTS for inhibitors of ROR gamma transcriptional activity). Settings: Drosophila S2 Gal4-RORgamma UAS-luciferase reporter, 20 h; activity change, negative = inhibition: at 53.6 µM (top of the series).
In short: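 Read-out: Photinus luciferase luminescence; inhibitors lower reporter signal. Insect Schneider cells with Gal4-ROR gamma fusion under metallothionein promoter, UAS reporter; 700 uM final copper sulfate induction, 20 hr, ambient temperature.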
% is set by controls: 0 for no effect and ±100 for the full control effect; potency is the fitted concentration of half-maximal effect.
Note: nearly all actives have a fitted effect of over 60% in size.

Potency, inconclusive:
Cc1cc(NC(=O)c2ccc(NC(=O)C(C)Oc3ccccc3)cc2)no1 (centres undefined) 6.31 µM [activator, partial curve, poor fit]
Cc1ccc2nc(Nc3ccc4[nH]c(=O)[nH]c4c3)c(-n3nc(C)cc3C)nc2c1 5.62 µM [inhibitor, single point]
Cc1ccc(-c2n[nH]c(=O)c3ccccc23)cc1S(=O)(=O)N(C)C 5.01 µM [activator, partial curve]
C(=N\n1cnnc1)/c1cn(-c2cccs2)nc1-c1ccccc1 1.26 µM [activator, full curve]
Cc1cccc(OC2CCN(Cc3nc(CC4CC4)no3)CC2)c1 14.1 µM [activator, single point]
Cc1cccc2nc(CSc3nc4ccc([N+](=O)[O-])cc4[nH]3)cn12 35.5 µM [inhibitor, single point]
Cn1c(=O)c2c(nc(Oc3cccc(Br)c3)n2C)n(C)c1=O 12.6 µM [activator, single point]
COc1ccc(S(=O)(=O)CCC(=O)N2CCN(c3ccc([N+](=O)[O-])cc3)CC2)cc1 12.6 µM [activator, single point]
CCCSc1nc2c(cnn2-c2ccc(C)cc2)c(=O)[nH]1 35.5 µM [inhibitor, single point]
Nc1nc(-c2ccccc2)cn1/N=C/c1ccccc1 11.2 µM [inhibitor, partial curve, poor fit]
CC(=O)N1c2ccc(S(=O)(=O)NCC3CCC(C(=O)NC4CCCCC4)CC3)cc2CC1C (centres undefined) 17.8 µM [activator, single point]
C=CCn1cnc2c(nnn2-c2ccc(Cl)cc2)c1=O 0.316 µM [activator, full curve, poor fit]
C=CCn1c(NC(=O)c2ccc(Br)o2)c(S(=O)(=O)c2ccccc2)c2nc3ccccc3nc21 12.6 µM [activator, partial curve]
Cc1ccc(-c2cc(-c3nnc(SCC(=O)NCC(C)C)n3N)c3ccccc3n2)cc1 7.08 µM [inhibitor, partial curve]
CN1CCN(Cc2c(C(=O)N/N=C/c3cccc(Br)c3)nnn2-c2nonc2N)CC1 35.5 µM [inhibitor, single point]
Cc1cc2ncn(-c3ncccc3[N+](=O)[O-])c2cc1C 3.55 µM [inhibitor, single point]
OC(COC(c1ccc(Cl)cc1)c1ccc(Cl)cc1)CN1CCc2ccccc2C1 (centres undefined) 15.8 µM [inhibitor, single point]
CCOC(=O)N1CCN(c2c(-c3ccc(C(C)C)cc3)c(=O)c2=O)CC1 20 µM [activator, single point]
COc1cc(/C=N/NC(=O)c2cc(-c3c(C)nn(-c4ccccc4)c3C)n[nH]2)ccc1O 1.41 µM [activator, partial curve]
CNC(=S)NNC(=O)c1cccn(Cc2cccc(Cl)c2)c1=O 3.98 µM [activator, full curve]
COc1ccccc1-n1cnc2c(c1=O)c1nc3ccccc3nc1n2-c1ccc(C)c(C)c1 35.5 µM [activator, single point]
O=C(NCCC1=CCCCC1)C1CCN(S(=O)(=O)c2ccc(Br)s2)CC1 11.2 µM [activator, partial curve]
O=C(/C=C/c1cccc(F)c1)c1ccc(N2CCOCC2)cc1 25.1 µM [inhibitor, single point]
CCOC(=O)CNC(=O)c1ccc2[nH]c3ccccc3c2c1 17.8 µM [activator, single point]
O=C(CNS(=O)(=O)c1ccccc1)N1CCN(c2ccccc2)CC1 35.5 µM [activator, single point]
CN(C)c1cccc(C(=O)NC2CCCc3ccccc32)c1 (centres undefined) 2.82 µM [activator, full curve, poor fit]
CCOC(=O)N1CCN(C(=O)COc2cccc3c2CCN(Cc2ccccc2F)C3=O)CC1 31.6 µM [activator, single point]
O=C(NC1CCN(Cc2ccccc2)CC1)C1CCN(S(=O)(=O)c2ccc(Cl)cc2)CC1 15.8 µM [activator, single point]
O=C(N1CCOCC1)N1CCN(S(=O)(=O)N2CCOCC2)CC1 0.126 µM [activator, full curve, poor fit]
O=C(N/N=C/c1ccco1)c1cccc(S(=O)(=O)Nc2ccccc2Cl)c1 22.4 µM [inhibitor, single point]
COc1cc(N/N=C/c2ccc(N(C)C)cc2)ncn1 15.8 µM [inhibitor, single point]
O=C(CCCN1C(=O)/C(=C\c2cccs2)SC1=S)Nc1ccccn1 10 µM [inhibitor, partial curve]
COc1ccc(-n2ncc(C(C)NS(=O)(=O)c3cc(F)ccc3C)c2C)cc1 (centres undefined) 12.6 µM [activator, single point]
Cc1cccc(N2C(=O)CC(Sc3ccccc3C(=O)O)C2=O)c1 (centres undefined) 31.6 µM [inhibitor, single point]
Cn1cc(Cl)c(C(=O)NNC(=S)Nc2cccc(Cl)c2)n1 11.2 µM [inhibitor, partial curve]
COc1ccc(N2CCN(c3cc(=O)n(Cc4ccc(F)cc4)c(=O)[nH]3)CC2)cc1 17.8 µM [activator, single point]
COc1ccc(/C=C/C(=O)OCC(=O)Nc2cc(S(=O)(=O)N(C)C)ccc2Cl)cc1 3.16 µM [activator, partial curve]

Potency, inactive:
CN(C)/C=C1\C(=O)Nc2ccccc21
CCn1c(COc2cccc(C)c2C)nnc1SCC(=O)N1CCN(c2ccc(OC)cc2)CC1
Cn1ncc(C#N)c1NC(=O)C1CC(c2ccc(Cl)cc2)=NO1 (centres undefined)
Cc1nn(C)c(C)c1NC(=S)Nc1ccc(S(=O)(=O)Nc2ncccn2)cc1
COc1cccc2c1CCCC2CCCN1CCN(C2CCCCC2)CC1 (centres undefined)
Cc1cc(C)c2sc(N(CCN(C)C)C(=O)c3cc(Cl)sc3Cl)nc2c1
Cc1nc(-c2cccc(S(=O)(=O)N3CCCCCC3)c2)cs1
COc1cc(-c2nc(S(=O)(=O)c3ccc(C)cc3)c(N(C)C)o2)cc(OC)c1OC
Cc1ccc(C(=O)NCC(C)(C)N2CCOCC2)s1
COc1ccccc1/C=N/OCc1cc(C(C)=O)ccc1OC
Clc1ccccc1CN1CCN(CCCc2ccccc2)CC1
Cc1c(Cl)ccc(S(=O)(=O)N2CCN=C2c2ccccc2)c1Cl
COc1ccc(/C(O)=C2/C(=O)C(=O)N(c3ncccn3)C2c2ccc(C(C)(C)C)cc2)cc1 (centres undefined)
CCCCn1c(/N=C/c2ccccc2NS(=O)(=O)c2ccc(C)cc2)nc2ccccc21
CCn1c(=O)cc(SCC(=O)N2CCCCC2)c2ccccc21
Cc1ccc(C)c(-c2nc3ccc(N)cc3[nH]2)c1
CCOC(=O)c1csc(NC(=O)c2ccc3c(c2)OCCO3)n1
COc1ccc(N2C3=C(CC4=C2CCCC4=O)C(=O)CCC3)cc1
Cc1ccc2nc(N3CCN(C)CC3)c(C=O)c(=O)n2c1
C=CCOc1cccc(C2C(C(=O)c3ccc(C)o3)=C(O)C(=O)N2c2nccs2)c1 (centres undefined)
COc1ccc(/C=C/C(=O)Nc2cc(C)nn2-c2nc3ccccc3n2Cc2cccc([N+](=O)[O-])c2)cc1
CCN1CCN(c2cc(C)c3cc(NC(=O)c4ccccc4F)ccc3n2)CC1

Potency, active:
Cc1cccc(NC(=S)NC(=O)c2cc(-c3ccccc3)nc3ccccc23)c1 2 µM
COc1ccc(/C(C)=N/NC(=S)NCCc2ccccc2)cc1 0.282 µM
CC(C)(C)OC(=O)CNC(=O)c1[nH]cnc1C(=O)Nc1ccc(Cl)cc1 4.47 µM
CCCCOc1cccc(C(=O)NC(=S)Nc2cccnc2)c1 11.2 µM
O=C(Nc1nc(-c2ccc(-c3ccccc3)cc2)cs1)c1cnccn1 1.12 µM
COc1cc([N+](=O)[O-])cc(/C=N/NC(=O)CSc2ccccn2)c1O 0.631 µM
Oc1ccc(CN2CCC(Cc3ccccc3)CC2)c2cccnc12 2.24 µM
Cc1ccc(C(=O)CC(=O)c2cccc(F)c2)c(O)c1 11.2 µM
CCN(CC)c1ccc(CNc2nc3ccccc3n2CCN2CCOCC2)cc1 11.2 µM
CN(C(=S)Nc1ccc(F)cc1)C1(c2ccccc2Cl)CCCCC1=O (centres undefined) 8.91 µM
CC1=C(c2ccccc2)C(=S)NC(C)(C)C1 2.51 µM
COc1ccc(-c2nnc(NC(=O)Cc3ccccc3)o2)cc1 1.58 µM
O=C(c1ccccc1)c1ccc(-c2ccc(O)cc2)cc1 3.55 µM

Activity change, negative = inhibition, inactive:
Cc1cc(C(=O)Nc2sc(C)c(C)c2C#N)no1 4.39% [at 0.365 µM]
COc1nc(Nc2cccc(F)c2)nc(OC)n1 -26.2% [at 1.91 µM]
